From publication PMC11841255 come the findings set out here.

For this experiment, the target named is truncated MYC: N-terminus. Nature of the experiment: co-IP; exogenous, tagged plasmids co-transfected in 293T cells; lysate incubated with primary antibody at 4 °C for 12 h, Protein A/G magnetic beads 1 h at 4 °C, five washes, WB; in one panel GFP-CDCA3 co-transfected with HA-MYC and Flag-TRIM28 (interaction enhanced).

Results are given in words; binding and its absence hold for the method and conditions named. Binding seen in cells or lysates may run through a third protein. Binding can be weak; no strength is given. Sequences can lack the tags named with a protein.

B1: GFP-CDCA3 (protein, UniProt Q99618 1-268)
chain: MGSAKSVPVTPARPPPHNKHLARVADPRSPSAGILRTPIQVESSPQPGLPAGEQLEGLKHAQDSDPRSPTLGIARTPMKTSSGDPPSPLVKQLSEVFETEDSKSNLPPEPVLPPEAPLSSELDLPLGTQLSVEEQMPPWNQTEFPSKQVFSKEEARQPTETPVASQSSDKPSRDPETPRSSGSMRNRWKPNSSKVLGRSPLTILQDDNSPGTLTLRQGKRPSPLSENVSELKEGAILGTGRLLKTGGRAWEQGQDHDKENQHFPLVES
For the molecule B1, the binding result is recorded as “binds”.
